PubChem BioAssay AID1259405 | NCATS | 2018

- Assay: 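Mouse-designed siRNAs used to find CHO productivity engineering targets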 (primary screen)
- Cells: Chinese hamster CHO-K1 ovary cells with stable secreted eGFP expression
- Reagent: single siRNA against mouse genes, 0.8 pmol siRNA per well (2 µl of 400 nM stock)
- Time to read-out: 3 days
- Measured: 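Per-well intracellular GFP measured by laser scanning cytometry, plus viability from ATP luminescence, each relative to plate median of non-targeting control wells, in %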
- Scale: GFP, % of control: higher = more GFP per well, higher productivity; viability (ATP), % of control: higher = more viable cells (more ATP)
- Rule for the call: 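Called active when intracellular GFP, relative to negative control, is at or above 120%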
The whole screen tested about 50,000 reagents; this is a random part of them. Over the whole deposit, about 4,000 (8%) were called active. 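Mouse siRNA library applied to hamster cells; one well for each siRNA.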 A number with no mark means an inactive call. The numbers tell different reagents against one gene apart. No sequences are given here.

no.	gene	siRNA no.	GFP, % of control	viability (ATP), % of control
1	Prl7b1 (prolactin family 7, subfamily b, member 1)	1	111	75.7
2	Prl7b1 (prolactin family 7, subfamily b, member 1)	2	88.7	78
3	Prl7b1 (prolactin family 7, subfamily b, member 1)	3	67.8	66.2
4	Or1e21 (olfactory receptor family 1 subfamily E member 21)	1	56.6	62.1
5	Or1e21 (olfactory receptor family 1 subfamily E member 21)	2	104	96.6
6	Or1e21 (olfactory receptor family 1 subfamily E member 21)	3	64.5	85.7
7	Fcgbpl1 (Fc fragment of IgG binding protein like 1)	1	60	92.9
8	Fcgbpl1 (Fc fragment of IgG binding protein like 1)	2	88.6	85.2
9	Fcgbpl1 (Fc fragment of IgG binding protein like 1)	3	73.3	84.2
10	Prodh (proline dehydrogenase)	1	104	70
11	Prodh (proline dehydrogenase)	2	81.9	54.2
12	Prodh (proline dehydrogenase)	3	91.2	77.8
13	Saraf (store-operated calcium entry-associated regulatory factor)	1	77	71.5
14	Saraf (store-operated calcium entry-associated regulatory factor)	2	57	57.4
15	Saraf (store-operated calcium entry-associated regulatory factor)	3	70.8	65.8
16	Wfdc18 (WAP four-disulfide core domain 18)	1	41.6	112
17	Wfdc18 (WAP four-disulfide core domain 18)	2	68.2	81.8
18	Wfdc18 (WAP four-disulfide core domain 18)	3	98.9	104
19	H3c1 (H3 clustered histone 1)	1	76.7	75.4
20	H3c1 (H3 clustered histone 1)	2	74.6	95.7
21	H3c1 (H3 clustered histone 1)	3	52.2	49.1
22	Zmynd12 (zinc finger, MYND domain containing 12)	1	66.7	92.5
23	Zmynd12 (zinc finger, MYND domain containing 12)	2	97	69.1
24	Mme (membrane metallo endopeptidase)	1	76.6	102
25	Mme (membrane metallo endopeptidase)	2	70.2	75.2
26	Mme (membrane metallo endopeptidase)	3	56.6	69.7
27	H2-M1 (histocompatibility 2, M region locus 1)	1	71.2	66
28	H2-M1 (histocompatibility 2, M region locus 1)	2	90.7	74.7
29	H2-M1 (histocompatibility 2, M region locus 1)	3	63.3	27.6
30	Zfyve26 (zinc finger, FYVE domain containing 26)	1	109	70.3
31	Zfyve26 (zinc finger, FYVE domain containing 26)	2	104	53.8
32	Zfyve26 (zinc finger, FYVE domain containing 26)	3	55.3	63.5
33	Stard13 (StAR related lipid transfer domain containing 13)	1	68.6	89
34	Stard13 (StAR related lipid transfer domain containing 13)	2	104	79.5
35	Stard13 (StAR related lipid transfer domain containing 13)	3	51.7	50.2
